In data set [1] the test system is Monomorium minimum males. Description: GC-MS analysis of male ant extracts for tyramides. The settings on record: M. minimum males trisected into heads, thoraxes, gasters.
Data set [2] concerns Megalomyrmex modestus males. Nature of the data set: GC-MS of methanol extracts of winged males (male tyramides). The conditions noted are these: collection RMMA030812-01.
In data set [3] the test system is Megalomyrmex mondabora males. The data set is described as above. The settings on record: collection RMMA030729-12.
In data set [4] the test system is Megalomyrmex wetterei males. The data set is described as above. The settings on record: collection RMMA010330-01.

Regarding `CCCC(=O)NCCc1ccc(O)cc1` [Compound 3, N-[2-(4-hydroxyphenyl)ethyl]butanamide], the “body part in which the compounds occur (trisection)” value in data set [1] was “occurred in the gaster of the ants”. Further, the “Tyramides, relative ratios of the compounds” value in data set [2] was determined as 1.5; in data set [3], 9; in data set [4], 2.
Turning to `CCCCCC(=O)NCCc1ccc(O)cc1` [Compound 6, N-[2-(4-hydroxyphenyl)ethyl]hexanamide], the “Tyramides, relative ratios of the compounds” value in data set [2], in data set [3] and in data set [4] was 1 each time.
As to `CC(C)CC(=O)C(=O)NCCc1ccc(O)cc1` [Compound 7c, N-[2-(4-Hydroxyphenyl)ethyl]-4-methyl-2-oxopentanamide], the “body part in which the compounds occur (trisection)” value in data set [1] is “occurred in the gaster of the ants”.

The record behind these values is patent US11767289B2, “Methods and compositions for pest control” (VMI Foundation, priority 2010, dated 2023).
